Assay results taken from patent publication US8378115B2, “Monomethine dyes” (Thermo Fisher Scientific (Milwaukee) LLC, priority 2007, dated 2013).

Key:
Assay type in all cases: binding
40mer dsDNA = test: Fluorescence enhancement of dye with 40mer dsDNA
Method: (§1) Stock solutions (8 mM) of each dye were prepared by dissolving each compound in dimethylsulfoxide (DMSO). Stock dye solutions were diluted to a desired concentration in tris-EDTA (TE) buffer (10 mM Tris, 1 mM EDTA, pH 8.0) immediately prior to use.
(§2) Stock solutions of λDNA and 40mer synthetic oligonucleotides (dsDNA and ssDNA), each at a concentration of 40 μM, were prepared in TE buffer. All DNA concentrations described are in base pairs of nucleotides. The DNA stock solutions were diluted to a desired concentration in TE buffer before being mixed with diluted dye solutions.
(§3) Fluorescence enhancement measurements of each dye were obtained by incubating dyes with λDNA, 40mer dsDNA, or 40mer ssDNA at a final concentration of 0.8 μM dye and 3.2 μM DNA for one minute. Fluorescence scans of the samples were performed with excitation wavelengths corresponding to the absorption maxima of the dyes. The resulting fluorescence intensities were compared to fluorescence intensities of Thiazole Orange (TO) and a compound equivalent to SYBR Green without the side chain (V02-06101), shown below,
(§4) [drawing 15] binding to λDNA, 40mer dsDNA, or 40mer ssDNA at a final concentration of 0.8 μM TO and 3.2 μM DNA for one minute, the same as for the tested dyes. The discrimination ratio between dsDNA and ssDNA was calculated by comparing the fluorescence intensities.

40mer ssDNA = test: Fluorescence of dye with 40mer ssDNA; conditions: 40-mer ss-DNA (Table 5)
40-mer ss-DNA = test: Absorption spectra of dye-DNA complex, 40-mer ss-DNA
40-mer ds-DNA = test: Absorption spectra of dye-DNA complex, 40-mer ds-DNA
λDNA = test: Fluorescence enhancement of dye with λDNA; conditions: λ DNA (Table 3)
Method: as §1, §2, §3, §4

λ DNA = test: Absorption spectra of dye-DNA complex, λ DNA; conditions: 8 μM dye, 8 μM DNA, TE buffer (Table 2)
rRNA [1] = test: Absorption spectra of dye in the presence of rRNA; conditions: rRNA (Table 4)
rRNA [2] = test: Fluorescence of dye with rRNA; conditions: rRNA (Table 5)
[3] = 40-mer ss-DNA, 8 μM dye, 8 μM DNA, TE buffer (Table 2)
[4] = 40-mer ds-DNA, 8 μM dye, 8 μM DNA, TE buffer (Table 2)

Row | SMILES | λem (40mer dsDNA; 40-mer ds-DNA (Table 3)) [nm] | λem (40mer dsDNA; 40-mer ds-DNA (Table 5)) [nm] | λem (40mer ssDNA) [nm] | λex (40-mer ss-DNA; 40-mer ss-DNA (Table 4)) [nm] | λex (40-mer ss-DNA; [3]) | ε (40-mer ds-DNA; 40-mer ds-DNA (Table 4)) | λex (40-mer ds-DNA; 40-mer ds-DNA (Table 4)) [nm] | ε (40-mer ds-DNA; [4]) | λex (40-mer ds-DNA; [4]) | λem (λDNA) [nm] | λex (λ DNA) | ε (rRNA [1]) | λex (rRNA [1]) [nm] | λem (rRNA [2]) [nm]
1 | CCN(CC)c1ccc2c(/C=C3\Sc4ccccc4N3C)cc(N(C)CCCN(C)C)[o+]c2c1 [Dye V02-07027] | 515 | 515 | 514 | 456 | 456 nm | 24,519 | 478 | 24,519 | 478 nm | 515 | 480 nm | – | – | –
2 | CCN(CC)c1ccc2c(/C=C3\Oc4ccccc4N3CC)cc(-c3ccccc3)[o+]c2c1 [Dye V02-06188] | 580 | – | – | – | 508 (530s) nm | – | – | 19,755 | 508 (530s) nm | 580 | 508 (530s) nm | – | – | –
3 | CCN(CC)c1ccc2c(/C=C3\Sc4ccccc4N3C)cc(N3CCN(CCO)CC3)[o+]c2c1 [Dye V13-01184] | 540 | 540 | 544 | 443 | 443 nm | 32,935 | 476 | 32,935 | 476 nm | 540 | 481 nm | 28,940 | 442 | 549
4 | CCN(CC)c1ccc2c(C=C3Oc4ccccc4N3CC)cc(C(C)(C)C)[o+]c2c1 [Dye V02-06136] | 533 | – | – | – | 487 nm | – | – | 29,450 | 492 nm | 533 | 494 nm | – | – | –
5 | CCCN(CCCN(C)C)C1=C/C(=C\c2sc3ccccc3[n+]2C)c2ccccc2N1c1ccccc1 [SYBR Green, reference compound] | 524 | 524 | 533 | 494 | 494 nm | 69,225 | 494 | 69,225 | 494 nm | 524 | 492 nm | – | – | 525
6 | CCN(CCCN(C)C)c1ccc2c(/C=C3\Sc4ccccc4N3CC)cc(C(C)(C)C)[o+]c2c1 [Dye V02-07015] | 558 | 558 | 561 | 503 | 503 nm | 20,520 | 516 | 20,520 | 516 nm | 558 | 525 nm | – | – | –
7 | CCN(CC)c1ccc2c(/C=C3\Sc4ccccc4N3C)cc(N(C)CCC[N+](C)(C)C)[o+]c2c1 [Dye V11-02190] | 520 | 520 | 516 | 485 | 485 nm | 15,024 | 485 | 15,024 | 485 nm | 532 | 485 nm | 13,134 | 485 | 516
